PMC7870626, “Neurotoxicity and underlying cellular changes of 21 mitochondrial respiratory chain inhibitors” (Archives of Toxicology, 2021)

By UniProt entry, the sequences of proteins in these tests, tags left out. Residues count along the entry.
UniProt O75251, 39-213: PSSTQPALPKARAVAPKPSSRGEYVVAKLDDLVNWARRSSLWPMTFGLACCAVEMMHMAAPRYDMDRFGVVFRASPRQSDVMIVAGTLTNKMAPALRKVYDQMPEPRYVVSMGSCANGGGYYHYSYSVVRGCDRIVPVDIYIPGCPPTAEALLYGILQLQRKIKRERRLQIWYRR
UniProt O75306, 34-463: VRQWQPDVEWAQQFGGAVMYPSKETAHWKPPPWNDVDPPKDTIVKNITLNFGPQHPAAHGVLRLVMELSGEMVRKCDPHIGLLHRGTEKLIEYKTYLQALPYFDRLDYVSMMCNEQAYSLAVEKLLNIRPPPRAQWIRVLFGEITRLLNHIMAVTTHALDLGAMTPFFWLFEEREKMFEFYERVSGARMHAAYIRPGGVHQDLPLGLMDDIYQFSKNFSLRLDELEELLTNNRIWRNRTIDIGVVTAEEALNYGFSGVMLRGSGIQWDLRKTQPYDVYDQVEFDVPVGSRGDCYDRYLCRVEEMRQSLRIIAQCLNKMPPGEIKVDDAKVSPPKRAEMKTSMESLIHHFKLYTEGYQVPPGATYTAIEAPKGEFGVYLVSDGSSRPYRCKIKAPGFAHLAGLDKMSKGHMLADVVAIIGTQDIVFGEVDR
UniProt P03886, whole entry: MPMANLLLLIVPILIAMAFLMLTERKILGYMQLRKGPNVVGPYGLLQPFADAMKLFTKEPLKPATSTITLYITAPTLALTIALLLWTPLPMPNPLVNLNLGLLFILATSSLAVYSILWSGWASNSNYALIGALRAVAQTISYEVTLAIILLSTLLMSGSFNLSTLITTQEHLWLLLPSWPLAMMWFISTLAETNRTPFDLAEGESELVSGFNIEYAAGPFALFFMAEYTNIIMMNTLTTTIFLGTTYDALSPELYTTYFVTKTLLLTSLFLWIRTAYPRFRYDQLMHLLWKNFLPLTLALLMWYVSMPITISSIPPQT

Molecular target: T1, cI (Homo sapiens, UniProt O75251+O75306+P03886)
T1 construct: endogenous in cells; host or cells: LUHMES cells, digitonin-permeabilized
Assay type: cell-based
Settings: LUHMES
Experimental: To investigate individual respiratory chain complexes, a method developed earlier and described extensively was used (Delp et al. [2019]). In brief, LUHMES cells were seeded at a density of 205,000 cells/cm^2 in PM into Agilent Seahorse XFe24-well plates. […] To reduce data variability, internal normalization of the OCR of each well was done relative to its value after equilibration.

## C=C(C)[C@H]1Cc2c(ccc3c2O[C@@H]2COc4cc(OC)c(OC)cc4[C@@H]2C3=O)O1 [Rotenone]
  cI inhibition at which neurite damage occurred: < 50%
